The results in this text go back to PubChem BioAssay AID2685 (National Center for Advancing Translational Sciences (NCATS), 2010).

The other results are listed elsewhere or left out. These are further read-outs of the screen, such as a control signal, another cell line or another target. No call is given for them. The list favours compounds with an active or inconclusive main result. Words in brackets tell the shape of the fitted curve; partial curves, single points and poor fits give uncertain potencies.

The nature of this test: qHTS Assay for Lipid Storage Modulators in Drosophila S3 Cells.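 As to cell number change: cells counted by Cell Tracker Red CMTPX staining in the red channel.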 Particulars: BODIPY lipid droplet fluorescence, 18-24 h; for cell number change: measured here: cell count max response, cells fed with added oleic acid. The method, boiled down:
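Drosophila S3 cells got compounds at several concentrations plus oleic acid (400 uM solution). Laser-scanning cytometry with 488 nm excitation read lipid droplets at 500-530 nm and cells at 575-640 nm. Percent activity was relative to 20 uM Triacsin C.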
Background: In qHTS, concentration-response curves come from the screen itself.

Setting [1] is: measured here: lipid fluorescence (Fed channel) AC50, cells fed with added oleic acid.
The mark [2] stands for this setting: measured here: cell number channel AC50, cells fed with added oleic acid.

In general, AC50 refers to the concentration at which the activity in the assay is half-maximal. `CCc1cccc(NC(=O)CCS(=O)(=O)c2ccc3c(c2)NC(=O)CO3)c1`: the cell number change was -22.1%. Moreover, under setting [1], the AC50 is 4.11 µM [falling, full curve].

With `O=C(Nc1ccc(Cl)c(Cl)c1)C1CC(=O)N(c2ccc(Br)cc2)C1` (configuration not stated), the cell number change was -50.7%. Besides, the AC50 under setting [2] was 20.6 µM [falling, single point]. Further, the AC50 under setting [1] is 18.4 µM [falling, single point].

On to `O=C(CCC(=O)c1cccs1)NCc1ccncc1`, for which the cell number change turned out to be 9.9%. The AC50 under setting [1] was 0.13 µM [rising, full curve, poor fit].

Turning to `COCCN(C(=O)CSc1nnc(-c2ccc(C(C)(C)C)cc2)n1N)c1c(N)n(CC(C)C)c(=O)[nH]c1=O`, the cell number change is -79.1%. Moreover, the AC50 under setting [2] is 23.1 µM [falling, partial curve].

Turning to `COc1ccc(NC(=O)CSc2nnc(C3CCCCC3)n2N)cc1OC`, the cell number change amounted to 17.3%.

Regarding `CCOc1ccc(/C(O)=C2/C(=O)C(=O)N(c3ncccn3)C2c2ccc(Cl)cc2)cc1` (configuration not stated), the cell number change is -26.2%. The AC50 under setting [1] is 10.3 µM [falling, partial curve].

As to `CCCNC(=O)CCc1c(C)nc2c(c(C)nn2-c2ccccc2)c1C`, the cell number change came to 26.8%. For the same compound, under setting [1], the AC50 is 13 µM [rising, partial curve, poor fit].

Turning to `N#CC1=C(N)Oc2n[nH]c(-c3ccc(F)cc3)c2C1c1cccc(OC(=O)N2CCOCC2)c1` (configuration not stated), the cell number change came out at 0.388%.

In the case of `CCN1CCN(C(=O)c2cc(=O)c3cc(C)ccc3o2)CC1`, the cell number change was -14.4%.

Regarding `CCCCc1nc2cc(C(=O)N3CCCCC3COC)ccc2o1` (configuration not stated), the cell number change was found to be 5.45%. The half-maximal activity concentration (AC50) under setting [1] was 6.51 µM [falling, single point].

Consider `COc1cccc(NC(=O)Cn2nc(Cc3cccnc3)c3ccccc3c2=O)c1`, for which the cell number change is -8.24%. Besides, the half-maximal activity concentration (AC50) under setting [2] is 0.164 µM [rising, full curve].

In the case of `COc1cc2c(cc1OC)C1=C(C#N)COCN1CC2`, the cell number change is 6.89%. Besides, the AC50 under setting [1] is 1.84 µM [rising, single point].

Consider `CCOc1ccc(NC(=O)CSc2nnc(Cc3ccccc3)c(=O)n2N)cc1`, for which, under setting [1], the AC50 was 2.59 µM [falling, full curve, poor fit].

`Cc1ccc(OCCn2nc3ccccc3n2)c(C)c1`: the AC50 under setting [1] is 3.26 µM [rising, single point].

On to `S=c1[nH]nc(-c2cccnc2)n1/N=C/C(Cl)=C\c1ccccc1`, for which the cell number change was -25.2%. Moreover, the AC50 under setting [2] was 0.00461 µM [falling, full curve, poor fit].

For the compound `CC(C)C(C(=O)Nc1ccc2c(c1)OCCO2)N1C(=O)c2ccccc2C1=O` (configuration not stated), the cell number change is -78.4%. For the same compound, under setting [2], the AC50 was 29.1 µM [falling, single point].

`COC(=O)c1ccc(NC(=O)CSCc2ccc(C)cc2)cc1`: the cell number change was -6.19%. Under setting [2], the AC50 was 0.00461 µM [falling, full curve, poor fit]. The AC50 under setting [1] was 5.17 µM [falling, single point].

In the case of `O=C(O)CN1C(=O)C2(OCCCO2)c2ccccc21`, the cell number change is -21.1%. The AC50 under setting [2] is 0.411 µM [falling, full curve, poor fit].

Take `COc1cc(N=Cc2c(CO)cnc(C)c2O)cc(OC)c1OC`: the cell number change was -8.99%. Under setting [1], the AC50 was 29.1 µM [rising, single point].

Turning to `CCNC(=O)CSC1=N/C(=C\c2ccc(O)c(OCC)c2)C(=O)N1c1ccc(OC(F)F)cc1`, the cell number change turned out to be 40.8%. Also, the AC50 under setting [2] is 29.1 µM [rising, single point].

As to `CC(=O)N/C(=C\c1ccccc1)C(=O)OCC(=O)NC(C)C12CC3CC(CC(C3)C1)C2` (configuration not stated), the cell number change is -1.08%. The AC50 under setting [1] is 29.1 µM [falling, single point].

As for `O=C(NC1CCCCC1)C1CC(=O)N(CCc2ccccc2)C1` (configuration not stated), the cell number change stood at 17.2%.

With `CN(C(=O)CSc1nnc(COc2ccccc2F)n1N)C1CCCCC1`, the cell number change is -14.1%. The AC50 under setting [1] was 6.51 µM [rising, single point].

Turning to `CCCn1c(N)c(N(CCOC)C(=O)c2ccc(Cl)c([N+](=O)[O-])c2)c(=O)[nH]c1=O`, the cell number change worked out at 4.2%.

Turning to `CCOC(=O)c1c(-c2cccc([N+](=O)[O-])c2)csc1NC(=O)C1CC1`, the cell number change is -10.7%.

For the compound `COc1ccc(NC(=S)NCc2ccc(F)cc2)c(OC)c1`, the cell number change turned out to be 5.84%. Moreover, the AC50 under setting [2] is 0.0116 µM [rising, full curve, poor fit].

Turning to `CN(C)S(=O)(=O)c1ccc(C(=O)Nc2nnc(Cc3ccccc3)s2)cc1`, the cell number change is -9.06%. Besides, the AC50 under setting [1] is 0.58 µM [falling, partial curve, poor fit].

With `O=c1cc(-c2ccc(Cl)c(Cl)c2)[nH][nH]1`, the cell number change was -20.9%. Moreover, the AC50 under setting [1] was 1.46 µM [falling, partial curve].

Consider `COc1ccc(C2Nc3ccccc3C(=O)N2Cc2ccccc2)cc1Cn1nnc2ccccc21` (configuration not stated), for which the cell number change was -34.5%. Under setting [2], the AC50 was 14.6 µM [falling, partial curve].

As to `COc1ccc(C(c2c(N)[nH]c(=S)[nH]c2=O)c2c(N)[nH]c(=S)[nH]c2=O)cc1`, the cell number change was found to be 2.54%.

For the compound `CCc1ccc(-c2cc(N)n(-c3ccccc3)n2)cc1`, the cell number change is -0.848%. The AC50 under setting [2] is 0.58 µM [falling, single point].

Regarding `O=C(Nc1c2c(nc3ccccc13)CCCC2)c1ccccc1F`, the cell number change stood at 5.37%. Moreover, the AC50 under setting [1] was 0.58 µM [rising, full curve, poor fit].

Regarding `CC(Sc1n[nH]c(=O)n1Cc1ccccc1)C(=O)NC1CCCCC1C` (configuration not stated), the cell number change is 35.2%. The AC50 under setting [2] was 10.3 µM [rising, single point]. The AC50 under setting [1] was 14.6 µM [rising, single point].

Regarding `O=C(Nc1ccc(S(=O)(=O)Nc2ncccn2)cc1)C1CC(=O)N(c2ccccc2)C1` (configuration not stated), the cell number change was -99.5%. Besides, under setting [2], the AC50 was 29.1 µM [falling, partial curve, poor fit].

Turning to `CCn1cc(Br)c(C(=O)Nc2ccc(C(=O)OC(C)C)cc2)n1`, the cell number change is -8.85%. Further, the AC50 under setting [1] was 1.03 µM [rising, single point].

For the compound `COc1ccc(CC(NC(C)=O)C(=O)NC2CCN(C(=O)c3ccc(Cl)cc3)CC2)cc1` (configuration not stated), the cell number change was -6.05%.

Take `CC1CCCN(C(=O)C2CCN(c3nc(-c4ccccc4)nc4c3CCC4)CC2)C1` (configuration not stated): the cell number change was determined as 0.867%. Besides, under setting [1], the AC50 was 1.46 µM [rising, partial curve].

In the case of `COc1ccc(S(=O)(=O)NCC2CCCN(C(=O)CNC(C)=O)C2)cc1` (configuration not stated), the cell number change turned out to be 5.85%. The AC50 under setting [1] is 0.146 µM [falling, full curve].

In the case of `CC(C)CNc1oc(-c2ccc(F)cc2)nc1C#N`, the AC50 under setting [1] was 0.58 µM [falling, single point].

`CCOC(=O)c1c(-c2ccc(C)cc2)csc1NC(=O)c1cc2ccccc2oc1=O`: the cell number change is -22.8%. For the same compound, the AC50 under setting [1] is 14.6 µM [falling, partial curve].

As to `COc1cc(-c2noc(C)c2C(=O)NCCO)cc(OC)c1OC`, the cell number change came to 5.18%.

As for `COc1cc(C2Nc3cccc4cccc(c34)N2)ccc1OC(C)=O`, the cell number change is -4.01%. Under setting [1], the AC50 was 4.11 µM [rising, full curve, poor fit].

With `COc1ccc(C(=O)N(Cc2cccs2)C2CCS(=O)(=O)C2)cc1` (configuration not stated), the cell number change turned out to be 0.901%. Moreover, under setting [1], the AC50 is 0.82 µM [rising, full curve].

In the case of `COc1cc(NC(=O)COc2ccccc2[N+](=O)[O-])ccc1NC(=O)c1ccco1`, the cell number change was determined as 38.9%. Moreover, under setting [2], the concentration at half-maximal activity (AC50) was 20.6 µM [rising, single point].

For `O=C(CS(=O)(=O)c1ccccc1)c1cc2cc(F)ccc2oc1=O`, the cell number change is -13%. Further, under setting [1], the AC50 was 6.51 µM [falling, single point].

As to `CC(C)C(C(=O)NCC1CCCO1)N(C(=O)CNS(=O)(=O)c1ccc(F)cc1)c1ccccc1` (configuration not stated), the cell number change is -30.8%. The AC50 under setting [2] was 29.1 µM [falling, single point].

For the compound `CCOc1cc(CN2CCC(CO)(Cc3cccc(C(F)(F)F)c3)CC2)ccc1OC`, the cell number change stood at 13.4%. Besides, the AC50 under setting [1] was 0.231 µM [rising, full curve].

Take `C[n+]1ccc(/C=C/c2c[nH]c3ccc(F)cc23)cc1`: the cell number change was -84.7%. Also, the AC50 under setting [2] was 20.6 µM [falling, single point]. The AC50 under setting [1] was 11.6 µM [falling, single point].

Consider `C/C(=N\NC(=O)c1c(Cl)c(C)nn1C)c1ccc(NC(=O)C2CCC2)cc1`, for which the cell number change is -27.7%. The AC50 under setting [1] was 2.91 µM [falling, full curve, poor fit].

In the case of `CCOc1ccccc1NC(=O)c1ccccc1-c1ccccc1`, the cell number change was -15.2%. The AC50 under setting [1] is 0.58 µM [falling, single point].

In the case of `COC(C(=O)Nc1ccc(Cl)cc1C)c1ccccc1` (configuration not stated), the cell number change was 7.58%. The half-maximal activity concentration (AC50) under setting [1] was 0.231 µM [rising, full curve, poor fit].

Consider `CC(C)(c1ccccc1)c1ccc(OCCCNCCO)cc1`, for which the cell number change is -14.2%. Besides, under setting [2], the AC50 was 0.00461 µM [falling, full curve, poor fit]. Further, under setting [1], the AC50 was 0.731 µM [falling, partial curve].

Consider `O=C(CSCc1ccc(Br)cc1)NCCc1ccccc1`, for which the cell number change is -0.246%. In addition, the AC50 under setting [1] was 7.31 µM [rising, partial curve, poor fit].

As to `COc1ccc(CCNC(=O)CSc2nnc3ccc(-c4ccncc4)nn23)cc1`, the cell number change came to 10.5%. Further, the AC50 under setting [1] is 3.26 µM [rising, single point].

For `Cc1ccc(S(=O)(=O)N(CC(O)CN2CCCCC2)c2ccccc2)cc1` (configuration not stated), the cell number change is -5.89%.

On to `Cc1ccc(S(=O)(=O)N(C)C)cc1NC(=O)C1Cc2ccccc2CN1C(=O)c1ccco1` (configuration not stated), for which the cell number change is -14.3%. Besides, the AC50 under setting [2] is 0.0517 µM [falling, full curve, poor fit].

`Cc1ccc(S(=O)(=O)N2CCOCC2)cc1C(=O)Nc1ccccc1N1CCCC1`: the cell number change stood at 24%. For the same compound, the AC50 under setting [1] is 16.4 µM [rising, partial curve, poor fit].

Regarding `O=C(Nc1ccon1)c1ccccc1F`, under setting [1], the concentration at half-maximal activity (AC50) is 32.6 µM [falling, partial curve, poor fit].

For `CCn1ccc(C(=O)N2CCOCC2)n1`, the cell number change was -14.6%. Also, the AC50 under setting [1] is 0.731 µM [falling, full curve, poor fit].

Take `C=CCn1c(O)c(N=NC(=S)Nc2cccc(OC)c2)c2ccccc21`: the cell number change was -82.1%. In addition, under setting [2], the AC50 was 14.6 µM [falling, partial curve]. Also, under setting [1], the AC50 was 14.6 µM [falling, partial curve].

With `O=C(c1cnc2ccccn2c1=O)N1CCc2ccccc21`, the cell number change was found to be 10.9%. Moreover, the AC50 under setting [1] was 9.2 µM [falling, partial curve].

Consider `CC1=NN(C(N)=S)C(=O)C1N=Nc1ccc(Cl)cc1` (configuration not stated), for which the cell number change is -41.5%. Moreover, the AC50 under setting [2] is 10.3 µM [falling, partial curve]. For the same compound, the AC50 under setting [1] is 7.31 µM [falling, partial curve].
